Here are results for 30 molecules from the supplement of paper PMC10735217.

This is one part of the list. Repeats in this data set agree poorly, so a single value says little.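 In a drug-repurposing library screen, luminescence reads luciferase driven by eight TEAD-binding elements, stably integrated into human kidney-derived cells. Compounds scoring over five robust Z scores above the plate mean are called hits.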

The test system of the experiment is HEK293A TEAD-LUC reporter. The experiment in a line: TEAD-luciferase reporter activity (YAP activation), robust Z score vs plate; higher = stronger YAP/TEAD activation. Conditions: 24 h. (In a reporter assay the amount or activity of a reporter protein is the signal.)

For the molecule `Cc1nnc(SCC2=C(C(=O)O)N3C(=O)C(NC(=O)Cc4ccccc4)C3SC2)s1` (centres undefined), the TEAD-luciferase reporter activity runs as follows: (compound concentration: 200 nM) inactive: -2.24; (compound concentration: 2 uM) inactive: 1.05; (compound concentration: 10 uM) inactive: 0.396.
The corresponding values for `CCCCn1c(=O)c2c(ncn2CC(C)=O)n(CCCC)c1=O` [Denbufylline] are inactive: -0.769, inactive: -1.12 and inactive: -1.24.
As for `C/C=C1\NC(=O)[C@H]2CSSCC/C=C/[C@H](CC(=O)N[C@H](C(C)C)C(=O)N2)OC(=O)[C@H](C(C)C)NC1=O` [romidepsin], the TEAD-luciferase reporter activity (compound concentration: 2 uM) was active: 12.3.
On to `C/C=C1\NC(=O)[C@H]2CSSCC/C=C/[C@H](CC(=O)N[C@H](C(C)C)C(=O)N2)OC(=O)[C@H](C(C)C)NC1=O` [Romidepsin (FK228 ,depsipeptide)], for which the TEAD-luciferase reporter activity was active: 30.8 (compound concentration: 200 nM) and active: 33.3 (compound concentration: 10 uM).
For the molecule `Clc1ccc2c(c1)C1=NCCN1c1c(-c3noc(C4CC4)n3)ncn1-2`, the TEAD-luciferase reporter activity (compound concentration: 200 nM) was inactive: -2.04, the TEAD-luciferase reporter activity (compound concentration: 2 uM) is inactive: -1.27 and the TEAD-luciferase reporter activity (compound concentration: 10 uM) is inactive: 4.27.
As for `C/C=C/C(=O)N(CC)c1ccccc1C` [N-Ethyl-o-crotonotoluidide483-63-6], the TEAD-luciferase reporter activity is inactive: 0.401 (compound concentration: 200 nM) and inactive: -2.31 (compound concentration: 10 uM).
For `C/C=C/C(=O)N(CC)c1ccccc1C`, the TEAD-luciferase reporter activity (compound concentration: 2 uM) is inactive: 0.805.
Turning to `COc1ccc2c(c1)c(CC(=O)SCc1cccnc1)c(C)n2C(=O)c1ccc(Cl)cc1` [pimetacin], the TEAD-luciferase reporter activity was inactive: -0.718 (compound concentration: 200 nM), inactive: -0.948 (compound concentration: 2 uM) and inactive: -0.783 (compound concentration: 10 uM).
Regarding `C[C@@H]1C[C@H]2[C@@H]3C[C@H](F)C4=CC(=O)C(Cl)=C[C@]4(C)[C@@]3(F)[C@@H](O)C[C@]2(C)[C@@]1(O)C(=O)CO`, the TEAD-luciferase reporter activity (compound concentration: 200 nM) is inactive: -0.785 and the TEAD-luciferase reporter activity (compound concentration: 10 uM) was inactive: -0.0606.
Consider `C[C@@H]1C[C@H]2[C@@H]3C[C@H](F)C4=CC(=O)C(Cl)=C[C@]4(C)[C@@]3(F)[C@@H](O)C[C@]2(C)[C@@]1(O)C(=O)CO` [halometasone], for which the TEAD-luciferase reporter activity (compound concentration: 2 uM) is inactive: 1.23.
Regarding `COc1ccc(/C=C/C(=O)NC[C@@H]2CN(c3ccc(N4CCOCC4)c(F)c3)C(=O)O2)cc1`, the TEAD-luciferase reporter activity was inactive: 0.311 (compound concentration: 200 nM), inactive: -0.653 (compound concentration: 2 uM) and inactive: -1.05 (compound concentration: 10 uM).
Turning to `CCCCCCCCCC(=O)O` [Capric acid], the TEAD-luciferase reporter activity by setting is: (compound concentration: 200 nM) inactive: -0.209; (compound concentration: 2 uM) inactive: 0.694; (compound concentration: 10 uM) inactive: -0.269.
On to `CN(C)CCCNCC1CCCCC1`, for which the TEAD-luciferase reporter activity is inactive: 0.651 (compound concentration: 200 nM), inactive: -1.21 (compound concentration: 2 uM) and inactive: -0.84 (compound concentration: 10 uM).
Consider `O=C(NCCCl)Sc1ncnc2[nH]cnc12`, for which the TEAD-luciferase reporter activity reads like this: (compound concentration: 200 nM) inactive: -0.588; (compound concentration: 10 uM) inactive: -0.649.
As for `O=C(NCCCl)Sc1ncnc2[nH]cnc12` [cloturin], where the note is “compound concentration: 2 uM”, the TEAD-luciferase reporter activity was inactive: 1.37.
For `Cc1cc2c(cc1C(F)(F)F)N(C(=O)Nc1ccc(OCc3ccccn3)nc1)CC2`, the TEAD-luciferase reporter activity was inactive: 0.488 (compound concentration: 200 nM), inactive: 0.744 (compound concentration: 2 uM) and inactive: 1.65 (compound concentration: 10 uM).
As to `CC1CS(=O)(=O)CCN1/N=C/c1ccc([N+](=O)[O-])o1` (centres undefined) [nifurtimox], the TEAD-luciferase reporter activity (compound concentration: 2 uM) is inactive: -1.48.
Regarding `CC1CS(=O)(=O)CCN1/N=C/c1ccc([N+](=O)[O-])o1` (centres undefined) [Nifurtimox], the TEAD-luciferase reporter activity (compound concentration: 200 nM) is inactive: -1.71 and the TEAD-luciferase reporter activity (compound concentration: 10 uM) is inactive: -1.08.
Take `CC[C@@H](Cc1ccc(OC)c(C(=O)NCc2ccc(Oc3ccc(F)cc3)cc2)c1)C(=O)O`: the TEAD-luciferase reporter activity is inactive: -0.755 (compound concentration: 200 nM), inactive: -0.666 (compound concentration: 2 uM) and inactive: -0.0687 (compound concentration: 10 uM).
`COc1ccc(-c2cc3cc(OC(C)=O)ccc3n2Cc2ccccc2)cc1`: the TEAD-luciferase reporter activity by setting is: (compound concentration: 200 nM) inactive: -1.43; (compound concentration: 2 uM) inactive: -0.405; (compound concentration: 10 uM) inactive: 0.973.
The corresponding values for `Fc1ccc(-c2c3cccc(C(F)(F)F)c3nn2Cc2ccc(F)cc2Cl)cc1` are inactive: -1.62, inactive: 0.315 and inactive: 1.54.
In the case of `CC(C(=O)O)c1ccc(C(=O)c2cccs2)cc1` (centres undefined) [suprofen, Cusi], the TEAD-luciferase reporter activity was inactive: -0.399 (compound concentration: 200 nM), active: 5.44 (compound concentration: 2 uM) and inactive: 0.228 (compound concentration: 10 uM).
With `C[C@@H]1CN(C(=O)[C@@H]2CN(C(C)(C)C)C[C@H]2c2ccc(F)cc2F)C[C@H](C)[C@@]1(O)c1ccccc1`, the TEAD-luciferase reporter activity reads like this: (compound concentration: 200 nM) inactive: -0.862; (compound concentration: 2 uM) inactive: 0.296; (compound concentration: 10 uM) inactive: 0.581.
For the molecule `O=C(CN(CCC1CCCC1)C(=O)N1CCC[C@H]1C(=O)Nc1nccs1)NO`, the TEAD-luciferase reporter activity (compound concentration: 200 nM) was inactive: -1.37, the TEAD-luciferase reporter activity (compound concentration: 2 uM) is inactive: 0.0842 and the TEAD-luciferase reporter activity (compound concentration: 10 uM) is inactive: -0.267.
The corresponding values for `CCc1ccc(Nc2c(F)c(F)cc(F)c2F)c(CC(=O)O)c1` [Robenacoxib] are inactive: -0.449, inactive: 2.22 and inactive: 1.71.
For `CNC(=O)[C@H](C/C=C/c1ccc(N(C)c2ncccn2)cc1)NC(=O)c1ccccc1Cl`, in that order: inactive: -1.49, inactive: -0.425 and inactive: 0.229.
Take `COc1cccc(CN2CCCC23Cc2ccccc2CNC3=O)c1` (centres undefined): the TEAD-luciferase reporter activity (compound concentration: 200 nM) is inactive: 0.163 and the TEAD-luciferase reporter activity (compound concentration: 10 uM) is inactive: -0.258.
For `CC(C)[C@H](O)C(=O)N[C@@H](C)C(=O)NC1C(=O)N(C)c2ccccc2-c2ccccc21` (some centres undefined), the TEAD-luciferase reporter activity is inactive: -0.985 (compound concentration: 200 nM), inactive: -1.17 (compound concentration: 2 uM) and inactive: 0.372 (compound concentration: 10 uM).
The corresponding values for `CC(C)[C@H](NC(=O)C(Cc1ccccc1)C[C@H](O)[C@H](Cc1ccccc1)NC(=O)OC(C)(C)C)C(=O)N[C@@H](Cc1ccccc1)C(=O)N1CCOCC1` (some centres undefined) are inactive: -1.26, inactive: -0.846 and inactive: -0.751.
Take `CC(C)n1c(/C=C/C(O)CC(O)CC(=O)O)c(-c2ccc(F)cc2)c2ccccc21` (centres undefined) [fluvastatin]: the TEAD-luciferase reporter activity reads like this: (compound concentration: 200 nM) inactive: -1.3; (compound concentration: 2 uM) inactive: -0.908; (compound concentration: 10 uM) inactive: 0.162.
